Changes are numbered by the printed parent chain. In names and notes the source's numbering stands. No constants are given. Whether binding was seen depends on the method and setting. For part of these data: In cells and extracts the contact can be indirect. Some binding calls cover weakened binding; strength is not graded here. Sequences can lack the tags named with a protein.
T1: mCherry-LacR-RIF1^N (residues 1-967) (human) (UniProt Q5UIP0)
T1 sequence: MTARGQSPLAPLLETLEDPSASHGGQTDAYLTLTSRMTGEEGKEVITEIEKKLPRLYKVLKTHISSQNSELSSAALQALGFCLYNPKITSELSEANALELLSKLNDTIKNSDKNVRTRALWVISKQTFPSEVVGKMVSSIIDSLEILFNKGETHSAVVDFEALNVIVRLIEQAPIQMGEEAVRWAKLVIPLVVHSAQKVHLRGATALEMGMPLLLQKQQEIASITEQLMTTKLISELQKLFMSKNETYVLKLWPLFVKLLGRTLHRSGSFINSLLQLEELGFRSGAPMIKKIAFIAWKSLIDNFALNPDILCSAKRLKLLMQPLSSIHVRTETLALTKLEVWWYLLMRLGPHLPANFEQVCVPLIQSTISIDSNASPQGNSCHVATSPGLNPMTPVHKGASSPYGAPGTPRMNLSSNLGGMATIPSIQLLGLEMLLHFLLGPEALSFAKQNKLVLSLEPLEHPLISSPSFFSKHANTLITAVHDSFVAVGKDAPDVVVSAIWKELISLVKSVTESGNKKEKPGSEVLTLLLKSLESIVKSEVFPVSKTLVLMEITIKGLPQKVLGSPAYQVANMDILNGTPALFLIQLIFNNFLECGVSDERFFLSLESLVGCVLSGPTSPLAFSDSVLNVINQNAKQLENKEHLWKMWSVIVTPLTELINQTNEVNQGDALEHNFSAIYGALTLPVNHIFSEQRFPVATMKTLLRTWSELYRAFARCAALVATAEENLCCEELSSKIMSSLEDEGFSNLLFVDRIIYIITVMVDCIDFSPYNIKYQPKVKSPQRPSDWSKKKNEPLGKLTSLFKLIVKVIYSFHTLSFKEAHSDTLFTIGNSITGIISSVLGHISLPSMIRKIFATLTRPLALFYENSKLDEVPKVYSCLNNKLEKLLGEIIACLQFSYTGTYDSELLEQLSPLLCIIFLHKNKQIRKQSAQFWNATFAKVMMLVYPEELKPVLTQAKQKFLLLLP

T2: Strep-tagged human RIF1^N (residues 1-980) (human) (UniProt Q5UIP0)
T2 sequence: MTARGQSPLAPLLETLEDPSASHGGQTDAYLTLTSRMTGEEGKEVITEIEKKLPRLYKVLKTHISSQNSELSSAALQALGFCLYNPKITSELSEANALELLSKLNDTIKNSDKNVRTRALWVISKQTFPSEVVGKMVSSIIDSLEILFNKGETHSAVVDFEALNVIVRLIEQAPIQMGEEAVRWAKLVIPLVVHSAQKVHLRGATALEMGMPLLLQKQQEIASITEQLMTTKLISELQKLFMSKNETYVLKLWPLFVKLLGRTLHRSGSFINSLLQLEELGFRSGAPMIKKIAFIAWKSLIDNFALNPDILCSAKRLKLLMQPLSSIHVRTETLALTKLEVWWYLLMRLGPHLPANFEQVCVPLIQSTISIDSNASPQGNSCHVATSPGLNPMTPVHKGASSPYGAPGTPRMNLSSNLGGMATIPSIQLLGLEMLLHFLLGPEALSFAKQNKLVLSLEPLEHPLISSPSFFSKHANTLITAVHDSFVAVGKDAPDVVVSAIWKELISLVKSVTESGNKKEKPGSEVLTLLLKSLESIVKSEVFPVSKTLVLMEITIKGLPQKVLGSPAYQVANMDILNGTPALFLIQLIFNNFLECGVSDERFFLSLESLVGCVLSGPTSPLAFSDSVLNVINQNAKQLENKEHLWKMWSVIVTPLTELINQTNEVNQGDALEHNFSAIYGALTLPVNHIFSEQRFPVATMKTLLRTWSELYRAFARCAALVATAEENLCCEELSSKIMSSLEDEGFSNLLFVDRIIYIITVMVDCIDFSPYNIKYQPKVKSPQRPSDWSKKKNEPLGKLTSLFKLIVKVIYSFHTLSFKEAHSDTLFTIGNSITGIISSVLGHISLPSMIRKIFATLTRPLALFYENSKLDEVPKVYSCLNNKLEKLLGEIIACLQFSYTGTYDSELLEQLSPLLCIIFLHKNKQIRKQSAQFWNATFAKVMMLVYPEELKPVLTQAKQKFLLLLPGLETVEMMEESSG

T3: Strep-RIF1 (residues 1-980) R36A (human) (UniProt Q5UIP0)
T3 sequence: T2 sequence with R36A

B1: eGFP-SHLD3^C (residues 126-250) (domain or fragment, UniProt Q6ZNX1 126-250)
chain: QHKRRSWSISLPSNNCTKNVSPLSKKLQDSLKALNLHSLYRARWTIEHTICNSQTLEDIWTKLNQIIRHNELPSCNATIQRHLGQIWVFCDIMYCEYVGSLLKGRLALTGKINLFVHKYGVIFSM
B2: eGFP-SHLD3^C (residues 126-250) S131A (domain or fragment, UniProt Q6ZNX1 126-250)
chain: B1 chain with S6A
B3: eGFP-SHLD3^C (residues 126-250) N201A (domain or fragment, UniProt Q6ZNX1 126-250)
chain: B1 chain with N76A
B4: eGFP-SHLD3^C (residues 126-250) D216A (domain or fragment, UniProt Q6ZNX1 126-250)
chain: B1 chain with D91A
B5: eGFP-SHLD3^N (residues 2-125) (domain or fragment, UniProt Q6ZNX1 2-125)
chain: TTEVILHYRPCESDPTQLPKIAEKAIQDFPTRPLSRFIPWFPYDGSKLPLRPKRSPPVISEEAAEDVKQYLTISEHDAKSHSYDCTVDLLEFQPSLKKQHLTWSHTLKEQTNSGNLGKQSEKGK
B6: eGFP-SHLD3^C (residues 126-250) W132A (domain or fragment, UniProt Q6ZNX1 126-250)
chain: B1 chain with W7A
B7: eGFP-SHLD3^C (residues 126-250) R166A (domain or fragment, UniProt Q6ZNX1 126-250)
chain: B1 chain with R41A
B8: FLAG-SHLD3^C (residues 126-250) (domain or fragment, UniProt Q6ZNX1 126-250)
chain: B1 chain
B9: FLAG-SHLD3 (full-length) (protein, UniProt Q6ZNX1 1-250)
chain: MTTEVILHYRPCESDPTQLPKIAEKAIQDFPTRPLSRFIPWFPYDGSKLPLRPKRSPPVISEEAAEDVKQYLTISEHDAKSHSYDCTVDLLEFQPSLKKQHLTWSHTLKEQTNSGNLGKQSEKGKQHKRRSWSISLPSNNCTKNVSPLSKKLQDSLKALNLHSLYRARWTIEHTICNSQTLEDIWTKLNQIIRHNELPSCNATIQRHLGQIWVFCDIMYCEYVGSLLKGRLALTGKINLFVHKYGVIFSM
B10: FLAG-SHLD3^C (residues 126-250) S131A (domain or fragment, UniProt Q6ZNX1 126-250)
chain: B1 chain with S6A
B11: FLAG-SHLD3^C (residues 126-250) W132A (domain or fragment, UniProt Q6ZNX1 126-250)
chain: B1 chain with W7A
B12: FLAG-SHLD3^C (residues 126-250) N201A (domain or fragment, UniProt Q6ZNX1 126-250)
chain: B1 chain with N76A
B13: FLAG-SHLD3^C (residues 126-250) D216A (domain or fragment, UniProt Q6ZNX1 126-250)
chain: B1 chain with D91A
B14: FLAG-SHLD3^C (residues 126-250) R166A (domain or fragment, UniProt Q6ZNX1 126-250)
chain: B1 chain with R41A

Each binder was assayed against T1, mCherry-LacR-RIF1^N (residues 1-967) (human) (assay: LacR/LacO chromatin recruitment assay).

Binder | binding
B1 | binds
B2 | binds
B3 | binds
B4 | binds
B5 | no binding
B6 | no binding
B7 | no binding

These binders were tested against T2, Strep-tagged human RIF1^N (residues 1-980) (human) (assay: co-IP + pull-down).

Binder | binding
B8 | binds
B9 | binds
B10 | binds
B11 | binds
B12 | binds
B13 | binds
B14 | no binding

The binders below were run against T3, Strep-RIF1 (residues 1-980) R36A (human) (assay: co-IP + pull-down).

Binder | binding
B8 | binds

Reference: doi:10.1101/2023.01.12.523815
